This passage reports binding results from patent publication US20150147274A1 (CANCER RESEARCH TECHNOLOGY, published 2015).

Where a chain is given by its changes, count along the chain named. Results are given in words; binding and its absence hold for the method and conditions named. Some entries that bind do so weakly or less than the wild type. For some assays here: Tags and fused reporters may be left off the sequences shown.

In experiment [1] the target is MET515-741 (deglycosylated pepsin fragment of hexahistidine tagged MET741) (human) (UniProt P08581). Nature of the experiment: complex of MET741-6His and Fab, digested, purified on NiNTA and by gel filtration. (In general: SEC sorts molecules by how far they enter the pores of the column.)
Experiment [2] deals with MET928 (cMET protein derived from construct 25-928) (human) (UniProt P08581). Nature of the experiment: ELISA, soluble scFv.

B1: 107_A07 Fab (tagless, native, i.e. not hinged) (Fab, V domains shown)
VH: QMQLVQSGAEVKKPGAPVKVSCKVSGYTFTDYYMHWVQQAPGKGLEWMGLVDPEDGETIYAEKFQGRVTITADTSTDTAYMELSSLRSEDTAVYYCATDATTPYWGMMWWGQGTLVTVSS
VL: DIQMTQSPSSLSASVGDRVTITCQASQDISNYLNWYQQKPGRAPKVLIYDASNLETGVPSRFSGSGSGTEFTLTISNLRPDDFATYYCQQGDSFPLTFGGGTKVEIKR
Take B1: the binding entry in experiment [1] is on record as “binds”.

B2: 108_C9 (scFv, not shown: small tags and cut ends)
scFv: QMQLVQSGAEVKKPGAPVKVSCKVSGYTFTDYYMHWVQQAPGKGLEWMGLVDPEDGETIYAEKFQGRVTITADTSTDTAYMELSSLRSEDTAVYYCATDATTPYWFPRBWGQGTLVTVSSLEGGGGSGGGGSGGGASDIQMTQSPSSLSASVGDRVTITCQASQDISNYLNWYQQKPGRAPKVLIYDASNLETGVPSRFSGSGSGTEFTLTISNLRPDDFATYYCQQGDSFPLTFGGGTKVEIK
Consider B2, for which, in experiment [2], the binding entry is “binds”.

B3: 108_F1 (scFv, not shown: small tags and cut ends)
scFv: B2 scFv with B109F
In the case of B3, the binding entry in experiment [2] is “binds”.

B4: 110_B10 (scFv, not shown: small tags and cut ends)
scFv: B2 scFv with F106G, P107M, R108B, B109M
Take B4: the binding entry in experiment [2] was “binds”.

B5: 109_G9 (scFv, not shown: small tags and cut ends)
scFv: B2 scFv with F106G, P107M, R108Q, B109E
For the molecule B5, in experiment [2], the binding result is reported as “binds”.

B6: 110_84 (scFv, not shown: small tags and cut ends)
scFv: B2 scFv with R108B, B109T
Regarding B6, the binding entry in experiment [2] is given as “binds”.

B7: 108_G4 (scFv, not shown: small tags and cut ends)
scFv: B2 scFv with B109F
As for B7, the binding result in experiment [2] is given as “binds”.

B8: 110_B1 (scFv, not shown: small tags and cut ends)
scFv: B2 scFv with F106G, P107M, R108B, B109L
For the molecule B8, the binding result in experiment [2] is listed as “binds”.
